Data published in article PMC5155426, “Organic Redox Species in Aqueous Flow Batteries: Redox Potentials, Chemical Stability and Solubility” (Scientific Reports, 2016).

Assay: Single cell redox flow battery (RFB) tests

O=C1C=C(S(=O)(=O)O)c2ccccc2C1=O [NQ(1,2)S, 1,2-naphtoquinone-4-sulfonate sodium]
capacity retention in RFB test (200 mM with excess ferrocyanide in 1 M KOH (Fig. 6b)): significant capacity loss over 90 cycles

O=C1C=C(O)C(=O)c2ccccc21 [NQ(1,4)H, 2-hydroxy-1,4-naphtoquinone]
capacity retention in RFB test (200 mM in 1 M KOH on negative side, excess ferrocyanide on positive side (Fig. 6a)): significant capacity loss after only two cycles

CC1(C)CC(O)CC(C)(C)N1[O] [TEMPOL, 4-hydroxy-2,2,6,6-tetramethylpiperidine-1-oxyl]
capacity retention in RFB test (50 mM with AQDS(2,7) in 0.5 M phosphate buffer pH 7, positive side (Fig. 6d)): significant capacity loss
